PubChem BioAssay AID1224828, NIAID – 2016

Assay: 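Knock-downs that increase or decrease LPS-induced p65 nuclear translocation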 (primary screen)
Cells: mouse RAW264.7 G9 macrophage reporter cells (GFP-p65, Tnf promoter-mCherry)
Reagent: siRNA pool against mouse genes, 100 nM
Timing: 2 days siRNA transfection, then 40 min LPS before fixation
Challenge: LPS (Salmonella minnesota R595) at 10 ng/ml
Read-out: 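Microscopy ratio of nuclear to perinuclear-ring GFP-p65 signal, scaled to the plate median; gene score is the average of two replicate robust z-scores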
Direction: p65 translocation robust z-score: higher = more nuclear NF-kappaB p65 after LPS than the plate median; nuclear/cytoplasmic p65 ratio: higher = more nuclear NF-kappaB p65
Hit rule: 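Called active when z exceeds 3.3 or falls under -1.56 (median of Tlr4 controls), giving activity score of at least 50; no calls for control wells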
Calls: active = hit (p65 shift raised or lowered); inactive = no clear change
The whole screen tested about 17,000 reagents; below is an unselected part. In the full data, 762 (4.5%) got an active call. 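Active calls include both raised and lowered p65 entry, mostly lowered; wells with fewer than 50 cells lack a z-score.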 Raw values are not corrected between plates.

| target | p65 translocation robust z-score | nuclear/cytoplasmic p65 ratio, rep 1 | nuclear/cytoplasmic p65 ratio, rep 2 | low cell count flag | outcome |
| --- | --- | --- | --- | --- | --- |
| Fam163b (family with sequence similarity 163, member B) | 1.29 | 1.78 | 2 | enough cells to score | inactive |
| Or51g1 (olfactory receptor family 51 subfamily G member 1) | – | 1.52 | 1.36 | fewer than 50 cells per well; well left out of scoring | inactive |
| Klhl1 (kelch-like 1) | -0.75 | 1.43 | 1.31 | enough cells to score | inactive |
| Mogs (mannosyl-oligosaccharide glucosidase) | -1.07 | 1.22 | 1.3 | enough cells to score | inactive |
| Acbd6 (acyl-Coenzyme A binding domain containing 6) | 1.18 | 1.77 | 1.88 | enough cells to score | inactive |
| Nt5c3 (5'-nucleotidase, cytosolic III) | 0.35 | 1.45 | 1.5 | enough cells to score | inactive |
| Nppb (natriuretic peptide type B) | 0.18 | 1.65 | 1.63 | enough cells to score | inactive |
| Msh2 (mutS homolog 2) | 1.67 | 1.71 | 1.51 | enough cells to score | inactive |
| Kptn (kaptin) | 0.9 | 1.61 | 1.49 | enough cells to score | inactive |
| Glb1l2 (galactosidase, beta 1-like 2) | 3.07 | 1.74 | 2.06 | enough cells to score | inactive |
| 1700008J07RIK | – | 1.51 | 1.57 | fewer than 50 cells per well; well left out of scoring | inactive |
| B130006D01Rik (RIKEN cDNA B130006D01 gene) | 0.72 | 1.67 | 1.65 | enough cells to score | inactive |
| Rtcb (RNA 2',3'-cyclic phosphate and 5'-OH ligase) | 0.97 | 1.61 | 2.06 | enough cells to score | inactive |
| Naip5 (NLR family, apoptosis inhibitory protein 5) | 1.22 | 1.72 | 1.87 | enough cells to score | inactive |
| Asah1 (N-acylsphingosine amidohydrolase 1) | 0.9 | 1.84 | 1.66 | enough cells to score | inactive |
| Daw1 (dynein assembly factor with WDR repeat domains 1) | – | 1.34 | 1.23 | fewer than 50 cells per well; well left out of scoring | inactive |
| Cavin1 (caveolae associated 1) | – | 1.33 | 1.31 | fewer than 50 cells per well; well left out of scoring | inactive |
| Slc15a3 | 1.97 | 1.65 | 1.5 | enough cells to score | inactive |
| Ell (elongation factor RNA polymerase II) | 2.24 | 1.69 | 1.72 | enough cells to score | inactive |
| Gbp7 (guanylate binding protein 7) | -0.79 | 1.24 | 1.43 | enough cells to score | inactive |
| Mrm3 (mitochondrial rRNA methyltransferase 3) | – | 1.35 | 1.04 | fewer than 50 cells per well; well left out of scoring | inactive |
| Tfip11 (tuftelin interacting protein 11) | – | 1.07 | 1.11 | fewer than 50 cells per well; well left out of scoring | inactive |
| Gdpd5 (glycerophosphodiester phosphodiesterase domain containing 5) | 0.36 | 1.58 | 1.96 | enough cells to score | inactive |
| Tnnt2 (troponin T2, cardiac) | -0.35 | 1.45 | 1.49 | enough cells to score | inactive |
| Hmgcll1 (3-hydroxymethyl-3-methylglutaryl-Coenzyme A lyase-like 1) | – | 1.36 | 1.19 | fewer than 50 cells per well; well left out of scoring | inactive |
| Dna2 (DNA replication helicase/nuclease 2) | -1.15 | 1.4 | 1.22 | enough cells to score | inactive |
| Smim30 (small integral membrane protein 30) | 2.9 | 1.78 | 1.78 | enough cells to score | inactive |
| Rad54l2 (RAD54 like 2 (S. cerevisiae)) | -0.75 | 1.34 | 1.15 | enough cells to score | inactive |
| Gna15 (guanine nucleotide binding protein, alpha 15) | 0.08 | 1.52 | 1.59 | enough cells to score | inactive |
| Tgif2lx1 (TGFB-induced factor homeobox 2-like, X-linked 1) | 1 | 1.71 | 1.62 | enough cells to score | inactive |
| Kdm6a (lysine (K)-specific demethylase 6A) | 1.42 | 1.58 | 1.38 | enough cells to score | inactive |
| Stambpl1 (STAM binding protein like 1) | -0.61 | 1.47 | 1.57 | enough cells to score | inactive |
| Cap2 (cyclase associated actin cytoskeleton regulatory protein 2) | 0.2 | 1.63 | 1.81 | enough cells to score | inactive |
| Arfgap3 (ARF GTPase activating protein 3) | 0.45 | 1.67 | 1.7 | enough cells to score | inactive |
| Mib2 (mindbomb E3 ubiquitin protein ligase 2) | – | 1.39 | 1.09 | fewer than 50 cells per well; well left out of scoring | inactive |
| Slc35a2 | – | 1.6 | 1.24 | fewer than 50 cells per well; well left out of scoring | inactive |
| Ca8 (carbonic anhydrase 8) | -0.74 | 1.44 | 1.71 | enough cells to score | inactive |
| Trappc5 (trafficking protein particle complex 5) | -0.14 | 1.32 | 1.2 | enough cells to score | inactive |
| Mpp2 | -0.03 | 0 | 1.37 | enough cells to score | inactive |
| Ddr1 (discoidin domain receptor family, member 1) | -0.47 | 1.64 | 1.3 | enough cells to score | inactive |
| Nkx3-1 (NK3 homeobox 1) | 0.71 | 1.54 | 1.51 | enough cells to score | inactive |
| Tnf (tumor necrosis factor) | -0.21 | 1.45 | 1.53 | enough cells to score | inactive |
| Ankmy1 (ankyrin repeat and MYND domain containing 1) | – | 1.18 | 1.46 | fewer than 50 cells per well; well left out of scoring | inactive |
| Casr (calcium-sensing receptor) | 0.21 | 1.51 | 1.64 | enough cells to score | inactive |
| Ch25h (cholesterol 25-hydroxylase) | -1.5 | 1.36 | 1.55 | enough cells to score | inactive |
| Mdm2 (MDM2 proto-oncogene) | – | 3.2 | 1.24 | fewer than 50 cells per well; well left out of scoring | inactive |
| Akr1c13 (aldo-keto reductase family 1, member C13) | -0.03 | 1.54 | 1.74 | enough cells to score | inactive |
| Smc5 (structural maintenance of chromosomes 5) | – | 0.697 | 1.25 | fewer than 50 cells per well; well left out of scoring | inactive |
| Ncor2 (nuclear receptor co-repressor 2) | -1.77 | 1.22 | 1.11 | enough cells to score | active |
| Or51a10 (olfactory receptor family 51 subfamily A member 10) | 2.96 | 1.84 | 1.66 | enough cells to score | inactive |
| Syngr3 (synaptogyrin 3) | – | 1.71 | 1.02 | fewer than 50 cells per well; well left out of scoring | inactive |
| Prss23 (serine protease 23) | – | 1.22 | 1.06 | fewer than 50 cells per well; well left out of scoring | inactive |
| Lmntd1 (lamin tail domain containing 1) | – | 1.31 | 1.35 | fewer than 50 cells per well; well left out of scoring | inactive |
| Alg8 (ALG8 alpha-1,3-glucosyltransferase) | -1.35 | 1.35 | 1.54 | enough cells to score | inactive |
| Or5au1 (olfactory receptor family 5 subfamily AU member 1) | 0.52 | 1.76 | 1.43 | enough cells to score | inactive |
| Slc1a7 | 0.03 | 1.33 | 1.32 | enough cells to score | inactive |
| Or51aa5 (olfactory receptor family 51 subfamily AA member 5) | -0.06 | 1.38 | 1.31 | enough cells to score | inactive |
| Or2t6 (olfactory receptor family 2 subfamily T member 6) | -0.69 | 1.41 | 1.39 | enough cells to score | inactive |
| Atrip (ATR interacting protein) | -0.66 | 1.55 | 1.48 | enough cells to score | inactive |

Ordered by “nuclear/cytoplasmic p65 ratio, rep 1” (ascending): 7 of the entries above.
| target | p65 translocation robust z-score | nuclear/cytoplasmic p65 ratio, rep 1 | nuclear/cytoplasmic p65 ratio, rep 2 | low cell count flag | outcome |
| --- | --- | --- | --- | --- | --- |
| Smc5 (structural maintenance of chromosomes 5) | – | 0.697 | 1.25 | fewer than 50 cells per well; well left out of scoring | inactive |
| Ncor2 (nuclear receptor co-repressor 2) | -1.77 | 1.22 | 1.11 | enough cells to score | active |
| Prss23 (serine protease 23) | – | 1.22 | 1.06 | fewer than 50 cells per well; well left out of scoring | inactive |
| Akr1c13 (aldo-keto reductase family 1, member C13) | -0.03 | 1.54 | 1.74 | enough cells to score | inactive |
| Syngr3 (synaptogyrin 3) | – | 1.71 | 1.02 | fewer than 50 cells per well; well left out of scoring | inactive |
| Or51a10 (olfactory receptor family 51 subfamily A member 10) | 2.96 | 1.84 | 1.66 | enough cells to score | inactive |
| Mdm2 (MDM2 proto-oncogene) | – | 3.2 | 1.24 | fewer than 50 cells per well; well left out of scoring | inactive |
